{
  "source": "paper PMC5947527",
  "about": "(Chemical Science, 2015)",
  "data": [
    {"assay": "general procedure: Fmoc solid-phase peptide synthesis; aminomethyl polystyrene resin (0.745 mmol/g) with Fmoc-Rink amide linker; 2-chlorotrityl chloride resin; H-Gly-2-chlorot; Oxyma/DIC", "conditions": "whole synthesis, 495 nm", "units": {"final HPLC purity": "%"}, "values": [
      {"substance": "FAM-Ahx-Thr-Gly-Arg-Ala-Lys-Arg-Arg-Met-Gln-Tyr-Asn-Arg-Arg-NH2", "final HPLC purity": 98},
      {"substance": "MeO-PEG- D- Arg- D- Arg- D- Asn- D- Tyr- D- Gln- D- Nle- D- Arg- D- Arg- D- Lys- D- Ala- D- Arg-Gly- D- Thr-Lys(NBD)-OH", "final HPLC purity": 100},
      {"substance": "NBD-Ahx-Thr-Gly-Arg-Ala-Lys-Arg-MeArg-Nle-Gln-Tyr-Asn-Arg-Arg-D-Phe-D-Val-NH2", "final HPLC purity": 97},
      {"substance": "NBD-Ahx-Thr-Gly-Arg-Ala-Lys-MeArg-MeArg-Nle-Gln-Tyr-Asn-MeArg-MeArg-NH2", "final HPLC purity": 97},
      {"substance": "NBD-Ahx-cyclo[Lys-Thr-Gly-Arg-Ala-Lys-Arg-Arg-Nle-Gln-Tyr-Asn-Arg-MeArg-Gly]", "final HPLC purity": 99},
      {"substance": "NBD-PEG-D-Thr-Gly-D-Arg-D-Ala-D-Lys-D-Arg-D-Arg-D-Nle-D-Gln-D-Tyr-D-Asn-D-Arg-D-Arg-OH", "final HPLC purity": 100}
    ]}
  ]
}
